Experimental data published in article PMC10803359.
Results are given in words; binding and its absence hold for the method and conditions named. Binding can be weak; no strength is given. Tags and fused reporters may be left off the sequences shown. For part of these data: Binding seen in cells or lysates may run through a third protein.

B1: UBP5, yeast two-hybrid fusion (enzyme, UniProt O22207 1-924)
chain: MAEVSMGSSSSSTDLSPEEERVFIRDIAIAAEANSKEGDTFYLITQRWWQEWIEYVNQDQPCNTNDGSSLSEHCDSPGSSTLKKPSRIDNSDLIYDSSLEDPSNTSEIIETLQEGRDYVLLPQEVWNQLRSWYGGGPTLARRVISSGLSQTELAVEVYPLRLQLLLMPKSDHSAIRISKKETIRELHRRACEIFDLDSEHVRIWDYYGHQKYSLMNDLDKTLDDANLQMDQDILVEVLDINGTLSSAHIQSAQENGLVDGDSTSILIEPSKSSLAAAGGFSSSRNAFRTGSVEVSQSFDNTYSSTGVTTRGSTAGLTGLLNLGNTCFMNSAIQCLVHTPEFASYFQEDYHQEINWQNPLGMVGELALAFGDLLRKLWAPGRTPIAPRPFKAKLARFAPQFSGYNQHDSQELLAFLLDGLHEDLNRVKHKPYINSRDADGRPDEEVADEFWKNHIARNDSIIVDVCQGQYKSTLVCPICNKVSVTFDPFMYLSLPLQFNTTRAITVTVFSCDKTALPSTITVNVSKQGRCRDLIQALTNACSLKQSEELKLAEIRNNFIHRLFEDPLIPLSSIKDDDHLAAYKLSKSSENTTLLRLVLRRRDQKAGERESTVQLKPCGTPLLSSASCGDALTKGKIHCLVQNMLSPFRREESVGKKGNSDSSIPERRSARFNNTEEEDKVGGLKKAKKSNSSDLGASKLSLQLIDEDNKTINLPDNEAEAMKLPSSATVTIYLDWTPELSGMYDITCLESLPEVLKYGPTTKKARSEPLSLYACLEAFLREEPLVPDEMWFCPQCNERRQASKKLDLWRLPEVLVIHLKRFSYSRSMKHKLETFVNFPIHDLDLTKYVANKNLSQPQLYELYALTNHYGGMGSGHYTAHIKLLDDSRWYNFDDSHISHINEDDVKSGAAYVLFYRRKSDAGGKMT
B2: UBIQUITIN SPECIFIC PROTEASE 5 (UBP5), fluorescent-protein fusion expressed in N. benthamiana (enzyme, UniProt O22207 1-924)
chain: B1 chain

Experiments:
[1] = molecular target: PWO1, yeast two-hybrid fusion (Arabidopsis thaliana); experiment: two-hybrid; GAL4 yeast two-hybrid in S. cerevisiae AH109; growth on SD-L-W-H in serial dilutions, 3 to 4 days at 28 °C; empty bait and prey vectors as negative controls
[2] = molecular target: SWINGER (SWN) ΔSET, yeast two-hybrid fusion (Arabidopsis thaliana); experiment: as above
[3] = molecular target: SWINGER (SWN) ΔSET, fluorescent-protein fusion expressed in N. benthamiana (Arabidopsis thaliana); experiment: co-IP; extracts of N. benthamiana leaves transiently co-expressing GFP- and mCherry-tagged proteins; IP with anti-mCherry and protein A agarose, 4 h at 4 °C, 150 mM NaCl, 1% Triton, Tris-HCl pH 8; blot with anti-GFP

Binder | binding [1] | binding [2] | binding [3]
B1 | binds | binds | –
B2 | – | – | binds
